In publication PMC11194573:

B1: DefA wild type, fused to the activating domain of the Gal4 regulator (plasmid pGAD) (enzyme, UniProt P94462 1-160)
chain: MAVKKVVTHPAEVLETPAETVTVFDKKLKKLLDDMYDTMLEMDGVGLAAPQIGILKRAAVVEIGDDRGRIDLVNPEILEKSGEQTGIEGCLSFPNVYGDVTRADYVKVRAFNRQGKPFILEARGFLARAVQHEMDHLDGVLFTSKISKYYTEDELADMEG
B2: DefA 59–160, fused to the activating domain of the Gal4 regulator (plasmid pGAD) (domain or fragment, UniProt P94462 59-160)
chain: AVVEIGDDRGRIDLVNPEILEKSGEQTGIEGCLSFPNVYGDVTRADYVKVRAFNRQGKPFILEARGFLARAVQHEMDHLDGVLFTSKISKYYTEDELADMEG
B3: DefA 51–155, fused to the activating domain of the Gal4 regulator (plasmid pGAD) (domain or fragment, UniProt P94462 51-155)
chain: QIGILKRAAVVEIGDDRGRIDLVNPEILEKSGEQTGIEGCLSFPNVYGDVTRADYVKVRAFNRQGKPFILEARGFLARAVQHEMDHLDGVLFTSKISKYYTEDEL
B4: DefA 59–155, fused to the activating domain of the Gal4 regulator (plasmid pGAD) (domain or fragment, UniProt P94462 59-155)
chain: AVVEIGDDRGRIDLVNPEILEKSGEQTGIEGCLSFPNVYGDVTRADYVKVRAFNRQGKPFILEARGFLARAVQHEMDHLDGVLFTSKISKYYTEDEL
B5: DefB (enzyme, UniProt Q45495 1-184)
chain: MITMENIVRDGHPALRETAEPVELPPTDAEKQQLADMIEFVKNSQNPELAEKYKLRPGVGLAAPQINIKKRMIAVHAEDASGKLYSYALFNPKIVSHSVEKSYLTSGEGCLSVDEAIPGYVPRYARIRVKGTTLEGENIDIRLKGFPAIVFQHEIDHLNGVMFYDHIDKENPFKEPENAIAIER

Columns and labels:
[1] = target: T1, DefA wild type, fused to the binding domain of the Gal4 regulator (plasmid pGBDU) (Bacillus subtilis) (UniProt P94462); assay: two-hybrid; yeast two-hybrid; PtkA wild type on the Gal4 activating domain (pGAD), DefA wild type and point mutants on the Gal4 binding domain (pGBDU); diploids from a and α haploid strains
T1 sequence: B1 chain

[2] = target: PtkA K59M, fused to the binding domain of the Gal4 regulator (plasmid pGBDU) (Bacillus subtilis); assay: two-hybrid; yeast two-hybrid; PtkA or PtkA K59M as bait (Gal4 binding domain, pGBDU), DefA variants as prey (Gal4 activating domain, pGAD); diploids from a and α haploid strains; growth on –LUH selective medium
[3] = target: PtkA, fused to the binding domain of the Gal4 regulator (plasmid pGBDU) (Bacillus subtilis); assay: as above
[4] = target: PtkA, fused to the binding domain of the Gal4 regulator (plasmid pGBDU) (Bacillus subtilis); assay: two-hybrid; two-hybrid assays of DefB with PtkA, no figure cited; vectors and orientation not stated

Molecule	binding [3]	also measured
PtkA wild type, fused to the activating domain of the Gal4 regulator (plasmid pGAD) (Bacillus subtilis) (enzyme)	–	binding [1]: binds
B1	binds	binding [2]: binds
B2	binds	–
B3	binds	–
B4	binds	–
B5	–	binding [4]: no binding

No constants are given. Whether binding was seen depends on the method and setting. For some of these results: Binding calls can cover weak binding; strength is not graded here. For some of these results: Where a sequence is shown, tags or fusion partners need not be part of it.
